Binding data for four molecules are collected here from article doi:10.1101/388470 (bioRxiv, 2018).

No constants are given. Whether binding was seen depends on the method and setting. Binding seen in cells or lysates may run through a third protein. Some binding calls cover weakened binding; strength is not graded here. Sequences can lack the tags named with a protein.

For assay [1], the target named is T1, Cdc45-5FLAG (S. cerevisiae), Q08032.
T1 chain: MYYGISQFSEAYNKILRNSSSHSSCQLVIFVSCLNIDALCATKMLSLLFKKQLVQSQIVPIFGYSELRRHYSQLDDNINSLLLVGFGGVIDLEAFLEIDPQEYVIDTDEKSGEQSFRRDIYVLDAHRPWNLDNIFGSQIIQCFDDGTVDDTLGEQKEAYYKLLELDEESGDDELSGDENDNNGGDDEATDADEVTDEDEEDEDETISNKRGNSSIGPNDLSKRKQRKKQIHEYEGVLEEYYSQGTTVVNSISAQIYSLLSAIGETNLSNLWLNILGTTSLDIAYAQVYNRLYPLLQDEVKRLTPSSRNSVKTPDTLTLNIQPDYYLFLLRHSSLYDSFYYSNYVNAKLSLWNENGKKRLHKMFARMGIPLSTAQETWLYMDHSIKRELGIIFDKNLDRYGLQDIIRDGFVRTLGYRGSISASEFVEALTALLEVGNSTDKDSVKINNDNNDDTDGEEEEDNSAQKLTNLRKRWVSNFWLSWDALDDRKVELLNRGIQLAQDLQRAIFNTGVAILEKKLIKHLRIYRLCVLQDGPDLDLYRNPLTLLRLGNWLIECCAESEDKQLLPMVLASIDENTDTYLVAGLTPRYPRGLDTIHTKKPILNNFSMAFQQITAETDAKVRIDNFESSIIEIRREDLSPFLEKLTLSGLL
Kind of assay: co-sedimentation. Conditions: remark: other sources report otherwise.

The target is the same in assay [2]. As to the kind of experiment: co-IP. Conditions: remark: other sources report otherwise.
The target of assay [3] is T2, Cdc45-5FLAG (S. cerevisiae) (UniProt Q08032).
T2 sequence: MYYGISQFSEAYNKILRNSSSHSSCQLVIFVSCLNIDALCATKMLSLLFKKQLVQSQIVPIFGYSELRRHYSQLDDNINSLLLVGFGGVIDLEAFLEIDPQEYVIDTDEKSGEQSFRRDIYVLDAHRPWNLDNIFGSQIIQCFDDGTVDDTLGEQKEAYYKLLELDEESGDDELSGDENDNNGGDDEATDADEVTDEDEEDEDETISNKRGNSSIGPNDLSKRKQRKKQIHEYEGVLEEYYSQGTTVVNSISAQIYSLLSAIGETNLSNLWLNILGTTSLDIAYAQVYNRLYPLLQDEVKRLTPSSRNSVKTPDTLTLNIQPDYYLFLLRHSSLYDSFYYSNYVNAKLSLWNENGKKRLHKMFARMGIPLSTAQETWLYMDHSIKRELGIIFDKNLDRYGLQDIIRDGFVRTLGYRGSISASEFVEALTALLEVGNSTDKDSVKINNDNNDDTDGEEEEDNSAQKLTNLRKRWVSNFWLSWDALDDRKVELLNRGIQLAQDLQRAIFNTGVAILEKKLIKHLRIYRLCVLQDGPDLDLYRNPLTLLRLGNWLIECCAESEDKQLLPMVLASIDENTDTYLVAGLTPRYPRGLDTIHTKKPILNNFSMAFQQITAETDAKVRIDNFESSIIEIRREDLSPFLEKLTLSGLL
Kind of assay: co-sedimentation.

Assay [4] has as its target Psf2-5FLAG (S. cerevisiae) (UniProt P40359). Kind of assay: co-IP.

B1: Cdc45-5FLAG, Q08032 1-650 (natural protein)
chain: MYYGISQFSEAYNKILRNSSSHSSCQLVIFVSCLNIDALCATKMLSLLFKKQLVQSQIVPIFGYSELRRHYSQLDDNINSLLLVGFGGVIDLEAFLEIDPQEYVIDTDEKSGEQSFRRDIYVLDAHRPWNLDNIFGSQIIQCFDDGTVDDTLGEQKEAYYKLLELDEESGDDELSGDENDNNGGDDEATDADEVTDEDEEDEDETISNKRGNSSIGPNDLSKRKQRKKQIHEYEGVLEEYYSQGTTVVNSISAQIYSLLSAIGETNLSNLWLNILGTTSLDIAYAQVYNRLYPLLQDEVKRLTPSSRNSVKTPDTLTLNIQPDYYLFLLRHSSLYDSFYYSNYVNAKLSLWNENGKKRLHKMFARMGIPLSTAQETWLYMDHSIKRELGIIFDKNLDRYGLQDIIRDGFVRTLGYRGSISASEFVEALTALLEVGNSTDKDSVKINNDNNDDTDGEEEEDNSAQKLTNLRKRWVSNFWLSWDALDDRKVELLNRGIQLAQDLQRAIFNTGVAILEKKLIKHLRIYRLCVLQDGPDLDLYRNPLTLLRLGNWLIECCAESEDKQLLPMVLASIDENTDTYLVAGLTPRYPRGLDTIHTKKPILNNFSMAFQQITAETDAKVRIDNFESSIIEIRREDLSPFLEKLTLSGLL
As for B1, the binding entry in assay [1] and in assay [2] was “binds” throughout.

B2: Dpb2 (a subunit of DNA Pol ε) (protein, UniProt P24482 1-689)
chain: MFGSGNVLPVKIQPPLLRPLAYRVLSRKYGLSIKSDGLSALAEFVGTNIGANWRQGPATIKFLEQFAAVWKQQERGLFIDQSGVKEVIQEMKEREKVEWSHEHPIQHEENILGRTDDDENNSDDEMPIAADSSLQNVSLSSPMRQPTERDEYKQPFKPESSKALDWRDYFKVINASQQQRFSYNPHKMQFIFVPNKKQNGLGGIAGFLPDIEDKVQMFLTRYYLTNDRVMRNENFQNSDMFNPLSSMVSLQNELSNTNRQQQSSSMSITPIKNLLGRDAQNFLLLGLLNKNFKGNWSLEDPSGSVEIDISQTIPTQGHYYVPGCMVLVEGIYYSVGNKFHVTSMTLPPGERREITLETIGNLDLLGIHGISNNNFIARLDKDLKIRLHLLEKELTDHKFVILGANLFLDDLKIMTALSKILQKLNDDPPTLLIWQGSFTSVPVFASMSSRNISSSTQFKNNFDALATLLSRFDNLTENTTMIFIPGPNDLWGSMVSLGASGTLPQDPIPSAFTKKINKVCKNVVWSSNPTRIAYLSQEIVIFRDDLSGRFKRHRLEFPFNESEDVYTENDNMMSKDTDIVPIDELVKEPDQLPQKVQETRKLVKTILDQGHLSPFLDSLRPISWDLDHTLTLCPIPSTMVLCDTTSAQFDLTYNGCKVINPGSFIHNRRARYMEYVPSSKKTIQEEIYI
Consider B2, for which, in assay [3], the binding result was “binds”.

B3: GINS heterotetramer (Sld5, Psf1, Psf2 and Psf3) (complex, UniProt Q03406;Q12488;P40359;Q12146)
chain 1: MDINIDDILAELDKETTAVDSTKITQGSSSTTHRDANTIVGSSLDLNDKTQIYVSPQQDFSDLMKSWKNERCSPELLPYPHQLMKRLLNRISMQSQLIENISMGFLDMQNASNANPPMPNESKLPLLCMETELERLKFVIRSYIRCRLSKIDKFSLYLRQLNEDENSLISLTDLLSKDEIKYHDTHSLIWLKLVNDSILKYMPEELQAINDTEGSVNMIDEPDWNKFVFIHVNGPPDGKWNEDPLLQENEFGKPCYTVTIPDLKEEVELTIGSIYVMRYEVIRDLLRDDKVALI
chain 2: MYGDLGNKLVLEAKRTKQLYARSNQDVNLPMYHEDIIRNILKEVSNLRKNTEYLKEQQQLGMLDDKVAKCQYFVTLLCMERNKRCLLAYQRLRTDILDSMAWNNNGLDLMSSITFSQQDTNNLSHQEQEYLKEYCDLITDLKSGDLVDIDLSGSLVPPSDVFIDVRVLKDAGEIQTEYGVFNLIKDSQFFVRQSDVERLIQQGYLQKI
chain 3: MSLPAHLQQTFSPEEIQFIVENEPIKIFPRITTRQKIRGDDRGTGNHTRWQLITTDDKALNNMVAMRSTEVVLWIALLLKQQSKCSIVAPQWLTTKELDRKIQYEKTHPDRFSELPWNWLVLARILFNKAKDDFHDPIHELRGKIQDLREIRQIKVLKGLKYLNESHLQLDNLSLLEINELRPFITEIMDKLREIHTASLTAGTENDEEEFNI
chain 4: MGYYDIDDVLADGTEFPCKFQYDIPGLGYLENNPGRPITKNTKLSLPLWLARILAIVGGDEALVDEEPVPFVELLPPDMFSTKVMNAIKTDPVALDLHSINSHFFSLAIKWIMLFSEKELANVVSELLLQRAQELNHHASSLSIDLNADSTGKNSANTNIATSTFLLKLEEMEKEIYKKSHESYKDTKRWMFKK
On to B3, for which the binding result in assay [3] is listed as “binds”.

B4: Psf2-5FLAG (natural protein)
chain: MSLPAHLQQTFSPEEIQFIVENEPIKIFPRITTRQKIRGDDRGTGNHTRWQLITTDDKALNNMVAMRSTEVVLWIALLLKQQSKCSIVAPQWLTTKELDRKIQYEKTHPDRFSELPWNWLVLARILFNKAKDDFHDPIHELRGKIQDLREIRQIKVLKGLKYLNESHLQLDNLSLLEINELRPFITEIMDKLREIHTASLTAGTENDEEEFNI
Turning to B4, the binding entry in assay [4] is recorded as “binds”.
